Three molecules from PMC6513553 can be followed below.

Protein sequences, listed by entry. Tags and fused reporters are not part of them.
UniProt P83949: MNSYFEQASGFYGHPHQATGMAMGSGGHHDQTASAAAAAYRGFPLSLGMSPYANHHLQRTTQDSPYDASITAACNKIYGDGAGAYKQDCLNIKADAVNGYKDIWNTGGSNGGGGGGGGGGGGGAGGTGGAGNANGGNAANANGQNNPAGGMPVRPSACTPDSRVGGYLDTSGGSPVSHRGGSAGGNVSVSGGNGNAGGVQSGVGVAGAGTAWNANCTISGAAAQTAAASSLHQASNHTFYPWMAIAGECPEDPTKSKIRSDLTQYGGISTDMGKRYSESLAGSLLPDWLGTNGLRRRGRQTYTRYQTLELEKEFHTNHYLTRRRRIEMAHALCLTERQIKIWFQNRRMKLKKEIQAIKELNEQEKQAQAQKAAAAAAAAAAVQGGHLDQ
UniProt Q8ST83: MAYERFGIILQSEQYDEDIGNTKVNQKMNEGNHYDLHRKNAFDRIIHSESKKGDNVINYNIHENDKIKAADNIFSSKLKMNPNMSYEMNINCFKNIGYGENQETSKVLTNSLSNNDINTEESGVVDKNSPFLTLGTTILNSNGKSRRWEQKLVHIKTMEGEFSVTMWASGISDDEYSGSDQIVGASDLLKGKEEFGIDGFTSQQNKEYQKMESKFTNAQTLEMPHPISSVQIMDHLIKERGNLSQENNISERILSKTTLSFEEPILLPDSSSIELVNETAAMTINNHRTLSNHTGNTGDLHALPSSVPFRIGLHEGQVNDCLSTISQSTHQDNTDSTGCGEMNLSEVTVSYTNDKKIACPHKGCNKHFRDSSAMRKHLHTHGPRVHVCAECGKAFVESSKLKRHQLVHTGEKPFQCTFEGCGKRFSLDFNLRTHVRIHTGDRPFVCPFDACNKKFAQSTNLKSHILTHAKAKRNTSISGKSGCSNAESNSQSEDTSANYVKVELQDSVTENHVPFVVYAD

Assay [1] addresses GFP-Ubx WT (Drosophila) (UniProt P83949). Description: co-IP; S2R+ Drosophila cells co-transfected; lysate in NP40 buffer (20 mM Tris pH7.5, 150 mM NaCl, 2 mM EDTA, 1% NP40); 1 to 1.5 mg of proteins incubated 3 hr with GFP-Trap beads; 3 washes; Western blot. For orientation: Immunoblotting shows a protein as a band on a membrane.
The target of assay [2] is endogenous GFP-Ubx fusion protein (Drosophila (endogenous locus, in embryos)) (UniProt P83949). Description: co-IP; nuclear extract of embryos fixed with 3.2% formaldehyde, sonicated and treated with Benzonase; 4 to 5 mg of nuclear lysate in NP40 buffer incubated overnight with GFP-Trap beads; 5 washes; Western blot; w1118 embryos as control.
Assay [3] concerns the target GFP-Ubx WT (Drosophila) (UniProt P83949). Description: co-IP; S2R+ Drosophila cells co-transfected; lysate in NP40 buffer (20 mM Tris pH7.5, 150 mM NaCl, 2 mM EDTA, 1% NP40); 1 to 1.5 mg of proteins incubated 3 hr with GFP-Trap beads; 3 washes; Western blot. The source holds these as a separate data set.

Read-outs that look alike come from different tables or passages of the source. Results are given in words; binding and its absence hold for the method and conditions named. Binding seen in cells or lysates may run through a third protein. Some results given as binding are weak or reduced against the parent protein; the word gives no strength. For part of these data: Where a sequence is shown, tags or fusion partners need not be part of it.

Take HA-Pho (from UniProt Q8ST83 1-520): in assay [1], the binding result is given as “binds weakly”.

Consider “Pleiohomeotic (Pho), endogenous (from UniProt Q8ST83 1-520)”, for which, in assay [2], the binding entry is “binds weakly”.

B1: HA-Trl (protein, UniProt Q08605 1-582)
chain: MSLPMNSLYSLTWGDYGTSLVSAIQLLRCHGDLVDCTLAAGGRSFPAHKIVLCAASPFLLDLLKNTPCKHPVVMLAGVNANDLEALLEFVYRGEVSVDHAQLPSLLQAAQCLNIQGLAPQTVTKDDYTTHSIQLQHMIPQHHDQDQLIATIATAPQQTVHAQVVEDIHHQGQILQATTQTNAAGQQQTIVTTDAAKHDQAVIQAFLPARKRKPRVKKMSPTAPKISKVEGMDTIMGTPTSSHGSGSVQQVLGENGAEGQLLSSTPIIKSEGQKVETIVTMDPNNMIPVTSANAATGEITPAQGATGSSGGNTSGVLSTPKAKRAKHPPGTEKPRSRSQSEQPATCPICYAVIRQSRNLRRHLELRHFAKPGVKKEKKTTSGKKSSSGSSGSGSGALSSSGSVPQVQTVQSLHTLQGVQVKKDPDAQQQQQQQQQQQQQQQQQAMTVSGATGGQVQQQVQQVQQQVQQQQQQQQQQQQQLQHHQIIDSSGNITTATTSAQAAAAAQQQAAGQQQQLVAQSDGSESGAPLSIAQVQTLQGHQIIGNLNQVNITDFQQQQPQQQQQQQQQQQQQQQQQQQTQQTL
Consider B1, for which the binding result in assay [3] was “binds”.
